Test results published in publication PMC7862700.
Only a part is listed here, and it is no random draw. At the low end of the ranking the order means little.

biological target: T1, ETV3 (UniProt P41162-2); assay: DAPPL (digital affinity profiling via proximity ligation, sequencing); settings: 10 mM Tris-HCl pH 7.5, 50 mM NaCl, 1 mM DTT, 4% glycerol, room temperature, 30 min; GST-TFs on glutathione beads, 16-mer random dsDNA library, 0.1% …; high values mean tight binding; double strand, one strand shown; scale: fold enrichment (6-mer frequency, TF over GST control)
T1 sequence: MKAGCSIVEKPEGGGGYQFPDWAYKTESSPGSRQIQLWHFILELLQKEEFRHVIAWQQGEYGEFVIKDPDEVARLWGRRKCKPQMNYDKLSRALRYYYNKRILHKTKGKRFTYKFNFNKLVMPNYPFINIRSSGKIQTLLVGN

Row | Sequence | binding signal
1 | ATGTCT | 1.26
2 | CTTTTT | 1.24
3 | ACTTTT | 1.31
4 | TAAACG | 1.15
5 | TCGAAT | 0.997
6 | ATCATT | 0.991
7 | TCACTT | 1.55
8 | TGCTTC | 2.21
9 | TTTACA | 1.22
10 | GGGCCT | 1.21
11 | GAAGCT | 1.75
12 | ATCATG | 1.19
13 | TGTAGC | 1.22
14 | TTTAAA | 1.22
15 | TGTGTT | 0.969
16 | CTAGGT | 1.14
17 | CTGAGC | 1.01
18 | GATTCT | 1.28
19 | ACTTTA | 1.19
20 | TACTAG | 0.973

Row | Sequence | binding signal
21 | CTAGCT | 1.24
22 | CGTAAT | 1.19
23 | CTTACC | 1.22
24 | AGAAGC | 1.23
25 | TGATGG | 1.2
26 | CTATTC | 1.33
27 | GCTGTA | 1.08
28 | AATAAG | 1.29
29 | CATACT | 1.36
30 | TCTTAC | 1.27
31 | ATCACC | 1.12
32 | ATCTAG | 1.07
33 | TGCGTA | 0.997
34 | ATCCGA | 1.11
35 | CTTTTG | 1.24
36 | TAGGCT | 1.14
37 | GCTTCG | 1.37
38 | TGTGAC | 1.17
39 | TTGGGT | 0.975

Reprinted at random: three entries already listed
Row | Sequence | binding signal
33 | TGCGTA | 0.997
31 | ATCACC | 1.12
37 | GCTTCG | 1.37
